Test results from article PMC2657911.

Tested on: T1, His10-SgcR3 (Streptomyces globisporus C-1027)
T1 sequence (looked up): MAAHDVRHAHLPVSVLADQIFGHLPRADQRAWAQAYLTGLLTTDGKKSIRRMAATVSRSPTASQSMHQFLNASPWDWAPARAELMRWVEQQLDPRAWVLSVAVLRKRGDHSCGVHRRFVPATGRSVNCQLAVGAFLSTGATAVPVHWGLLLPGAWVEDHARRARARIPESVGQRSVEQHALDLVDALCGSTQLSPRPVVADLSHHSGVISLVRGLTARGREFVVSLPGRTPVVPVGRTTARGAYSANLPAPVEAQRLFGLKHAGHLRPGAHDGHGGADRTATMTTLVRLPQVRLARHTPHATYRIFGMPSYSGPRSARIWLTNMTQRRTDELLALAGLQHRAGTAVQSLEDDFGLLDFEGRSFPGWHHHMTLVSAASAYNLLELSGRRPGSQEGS
Experiment: EMSA
Settings: 20 fmol probe, 100 mM Tris/HCl pH 7.5, 500 mM KCl, 4 C, 20 min, 5% native PAGE in 0.5x TBE at 4 C, recombinant protein, residues 1-395, protein details: N-terminal His10 (pET-16b), label: 3'-end Biotin-11-ddUTP, probe letters rebuilt from the primers and the genome

| Sequence | binding result (13.5 pmol protein) | binding result (0.5-27 pmol protein, shift abolished by 200-fold unlabeled probe) |
| --- | --- | --- |
| GAGCTGCGCGGAAGGAAGGCGTTGGCGCTGGAGTCCTGGACGTCGGCGAGCTTCCCCGCCAGCGGGCCCAGCGCCATCGCGATGATGAGCCAGGCGGCCAGGACCAGCCACTTTCCACGTCTGTCACCGGGCACACCACTGGTGCGCTTGAACCAGGCTTGCAAGGGGGGCTCCTTCGGGCACGTCTCGGATTCCGCGATGGCCGGGAGTGTTGGAGAGGGCCGCACTGCACGGCCGTTCCGACGCGGCCGGCGGGGGCCTCCATCGTTCCCAACTCCACCTGGAAGACGTCAACTTCCAGATTGCGCAGTTGGTCGAACAAGGTTTGACCGAACGCTTCGGCGCCGTACGCGGAGCTCCGCACTCAAGGAGAAGCGTCCTGTGCGCCGCCGCCCCAAGATGGGCGTCGTGGCGAATGACGTGACTGTGACCGAGCCGGACCGGGGGCCTTCGCCGGCCTCCGGATCTGCGGTGTTGCACC (double strand) [sgcC1 upstream region (481 bp)] | no binding | – |
| GAGGGGTTTTGAGGGGTGAAAAAGGGACTGAAGGGACTCAACTTCCCCATTATGAGCTGAGTAGAAGAAAGCAGTATGACGATATGCGCGCCTACATACGCGCGCGTACATAGTGAGCTTATAATGCGGAAGTTGAGTCCCTTCAGTCCCTTTTCGTGGGGTCGTATCCCCTCTGACCTGCGGTGATGACCAGGGACTCAACGCAGGGACCGAAGAGGGACCAAGTCCCTGCGCGGGGCGGGCGACGGTAATCGTGCAGTGCCCCCTCCCCCGTTTCCCACAGCGAGTCGTCGCTCCCCTGTGAGGCCGGAGAGGGTCCTAGAACCCCTCAGGGGCCGTTCTGTGGCCCTCTGGGCCTCCTCCTGGCCATTTACCCCATGGGGGCGCTTGGGGGCGTCAGGAGGGCTTGTGAGGGCTCTGCCGGGAAGTGGCGGATTGCGCATGGCAGGAGATGCCCCGACAGCGGCCGGGAATCGACGATGTCCCCCGACCCCTATC (double strand) [sgcB1 upstream region (496 bp)] | no binding | – |
| ACGATCGTGTCCGCGTAGGCCTCCAGGGTCATGGTCCGGATATCGCCGGCCGGCGCCCCTCGCTCATTGTCGTCGCGCAACTCGCTCTCCATTCTCGCAGTCCGGAGTGGGATGCCTTGTGGCGAGGAGAAAGCTAGGTTCGTTCGACCGGTTCAAGCAACTAGCCAAAGTCGAGGCGACCTTGAAACCGACTCCACGGAGTTGGCGCGAAGCGGCGGATGGATTACACGCGCGGGCGAGCGGCTCACTAGTCTGGCCGCACGGATGTCTTCATCACCTGCACGTGGAAAAGCTTCTGCACGGGCACCGCATGTGGAAGTGAGCCCTGGTCTCATGTCTTGGGGGAAACGTGAAAAGTGACTCTGCCCAACGCGCCGTGGAGCGATCACGCCGTGTCGTACGGATCGATGAACTCATTCCCGCCGATTCCCCGCGCCTGAACGGAATCGATCGTT (double strand) [sgcR1R2 promoter region (455 bp)] | – | binds |
| GCCCACGCCCTCTGATCGGCCCTCGGCAGGTGCCCGAAGATCTGATCGGCAAGTACGGAGACCGGCAGGTGCGCGTGCCTCACGTCGTGTGCCGCCATGGCTCGTTTCCCTTCTCCTGGGCAACCGATCGAGCGCCGCGATATCGCAGCGAGCGATATGGTGTTCTACGGGGAGGGCGCTTCCGTCGGCCGGAGACCTGGCAGGGAACGTCGGCCCCATGGGGCTCGAAGATCGCCGACATCCCTCCCCCTCCCCCGCTTGACCAAGCCTTTTACCTGCTTGATCGATTCGTGGTTGTCACCTGGTCGCCATTGCGCCGAAACTTGAGTGCCGTCGGCCTGCCCCCCCGGGCAAGGCTCCGAACCCCTTCGGCATAAAACTCCGCACGCTGCTTCGCCATGCCGATCATCGTCGGAGAGGACATCGTAAATCAGGATCGGCCGGTACGTACACGGAGCATGGTCCCG (double strand) [sgcR3 upstream region (467 bp)] | no binding | – |

Negatives hold for the conditions tested. Where a protein sequence is shown, tags need not be part of it.
